# Measurements taken from PubChem BioAssay AID493014 (National Center for Advancing Translational Sciences (NCATS), 2011).
# The other results are listed elsewhere or left out. These are further read-outs of the screen, such as a control signal, another cell line or another target. No call is given for them. The list favours compounds with an active or inconclusive main result. Words in brackets tell the shape of the fitted curve; partial curves, single points and poor fits give uncertain potencies.
# Assay: qHTS Assay to Find Inhibitors of Chronic Active B-Cell Receptor Signaling
# Conditions: ABC-DLBCL IkBa-CBG/CBR reporter, luminescence ratio (green luciferase fused to IkBa over red control in TMD8 lymphoma cells), 4 h
# Method in brief: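 Compounds up to 46 uM were incubated four hours with TMD8 cells whose green CBG68 luciferase is fused to IkappaBalpha; red CBR luminescence normalised the signal, and concentration-effect curves were fitted to fusion, red and ratio data.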
# [1] = measured here: CBR red luminescence, cell number
# [2] = measured here: IkBa-CBG green luminescence
SMILES,AC50 [1],AC50 [2]
O=c1oc2ccccc2c2nccnc12,"2.06 µM [falling, single point]",–
COc1cc(N)c(Cl)cc1C(=O)N[C@@H]1CCN(CCCOc2ccc(F)cc2)C[C@@H]1OC,"14.1 µM [falling, single point]",–
COc1ccc(N2CCN(S(=O)(=O)CCNC(=O)Cc3ccc([N+](=O)[O-])cc3)CC2)cc1,"0.1 µM [rising, full curve, poor fit]",–
Cc1ccccc1Cn1cc(NC(=O)c2nc3ncccn3n2)cn1,"6.51 µM [falling, single point]",–
O=C(COC(=O)CN1C(=O)c2ccccc2C1=O)Nc1cccc(F)c1,"5.17 µM [rising, partial curve]",–
FC(F)(F)c1cccc(N2CCc3cn[nH]c32)c1,"23.1 µM [rising, partial curve, poor fit]",–
CN1C(=O)c2cccc3c(S(=O)(=O)Nc4ccccn4)ccc1c23,"14.6 µM [rising, partial curve, poor fit]",–
COCCCNC(=O)c1ccc2c(c1)ncn2-c1ccccc1OC,"29.1 µM [falling, single point]",–
COCCOC1CCN(Cc2cn(Cc3ccccc3)nc2-c2cc3ccccc3o2)CC1,"35.5 µM [falling, partial curve, poor fit]",–
CS(=O)(=O)c1cccc(C(=O)Nc2cccc(-c3nc4ccccc4[nH]3)c2)c1,"20 µM [falling, partial curve, poor fit]",–
O=C(CSCc1ccccc1)N1CCN(c2ccc(F)cc2)CC1,"1.58 µM [rising, partial curve, poor fit]",–
CNC(=O)c1nc(C)c(C2(C)CC(c3ccccc3)=NO2)s1 (centres undefined),"35.5 µM [rising, single point]",–
O=S(=O)(Nc1cccc2c1CCCC2)c1cccc(C(F)(F)F)c1,–,"23.1 µM [rising, partial curve, poor fit]"
CCOC(=O)C1CCN(S(=O)(=O)c2cccc(-c3csc(C)n3)c2)CC1,"1.16 µM [falling, full curve]",–
CCN(CC)S(=O)(=O)c1ccc(N/N=C/c2ccc(O)cc2)nc1,"22.4 µM [falling, single point]",–
CCOC(=O)c1c(C)nc2sc(C(=O)Nc3ccc(OC)cc3)c(N)c2c1-c1ccc(OC)cc1,"6.51 µM [falling, single point]",–
CCOc1ccc(NC(=O)c2nccnc2CO)cc1,"8.91 µM [falling, partial curve, poor fit]",–

SMILES,AC50 [1],AC50 [2]
CC1CCc2sc3ncnc(N4CCOCC4)c3c2C1 (centres undefined),"1.3 µM [falling, partial curve, poor fit]",–
CCOC(=O)c1c(SCC(=O)Nc2nccs2)nc(C)c(C)c1C,"15.8 µM [falling, single point]",–
CCOC(=O)C1=C(C)Nc2ccccc2S1,"35.5 µM [rising, single point]",–
COc1cccc(NS(=O)(=O)c2ccc3c(c2)CC(=O)N3)c1,"2.06 µM [rising, full curve]",–
COc1ccc(Cl)cc1NC(=O)CN(C)CC(=O)Nc1ccccc1-c1ccccc1,"35.5 µM [falling, single point]",–
O=C(N/N=C/c1cccs1)c1cc(-c2ccc3ccccc3c2)n[nH]1,"10.3 µM [rising, partial curve]",–
N=C(N)SCc1ccccc1Cl,"16.4 µM [falling, single point]",–
O=C(N1CCNCC1)N1CCOCC1,"32.6 µM [falling, single point]",–
O=C(NCc1csc(-c2cccs2)n1)C1CCC1,"10 µM [rising, partial curve]",–
Cc1sc2nc(C)n(/N=C/N(C)C)c(=O)c2c1C,"4.47 µM [rising, full curve, poor fit]",–
CC(C)COc1ccc(C(=O)CCN2CCCCC2)cc1,"15.8 µM [falling, single point]",–
O=C(Nc1nccs1)c1ccc(Cl)c([N+](=O)[O-])c1,"11.2 µM [falling, partial curve, poor fit]",–
Cc1cc(Nc2cccc(F)c2)nc(N2CCOCC2)n1,"35.5 µM [falling, single point]",–
Cc1cc(C)cc(NC2=CC(=O)CC(c3ccco3)C2)c1 (centres undefined),"8.2 µM [falling, partial curve]","25.9 µM [rising, partial curve, poor fit]"
CCNc1c(NC(=O)c2ccc3c(c2)OCO3)c(=O)oc2ccccc12,"3.16 µM [falling, single point]",–
O=C(Cc1ccccc1)Nc1ccc2c(c1)OC1(CCCC1)O2,"14.6 µM [rising, partial curve, poor fit]",–

# 2 consecutive entries out of the list so far, for reference:
SMILES,AC50 [1],AC50 [2]
CCOC(=O)c1c(SCC(=O)Nc2nccs2)nc(C)c(C)c1C,"15.8 µM [falling, single point]",–
CCOC(=O)C1=C(C)Nc2ccccc2S1,"35.5 µM [rising, single point]",–
